PubChem BioAssay AID652259 – Drosophila RNAi Screening Center | 2013
In all, the deposit lists about 22,000 reagents; shown is a random part of those with a known target gene and a result. In the full data, 233 (1.1%) are marked active. 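Light values are raw, unnormalised plate reads; the ratio scores behind the reporter calls were not deposited.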 Unmarked entries are inactive. A plus sign joins genes that one reagent is predicted to hit. Not given: the amount of reagent, the time to read-out, the dose of the treatment.

- Test: 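Genome-wide hunt for genes that control Wingless pathway activity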 (primary screen)
- Cell system: Drosophila clone 8 imaginal disc epithelial cells
- Reagents: long dsRNA against Drosophila genes
- Challenge: pathway stimulated by co-transfected Wingless expression plasmid
- Detection: 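Firefly luciferase from a tcf-site Wingless reporter, measured alongside co-transfected Renilla luciferase that tracks transfection; pathway stimulated by a Wingless plasmid; the firefly-to-Renilla ratio is not deposited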
- Direction: firefly reporter light: higher = more Wg reporter light, before normalisation; Renilla control light: higher = more transfected or surviving cells
- Hit rule: 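Strong candidates differ from their plate mean by at least two out of four per-plate statistical tests; weak candidates meet just one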
- Calls: active = candidate regulator (raises or lowers reporter); inactive = not a candidate

With hbt + CG43779 [DRSC02503], how do the results read?
firefly reporter light, replicate 1: 3024; firefly reporter light, replicate 2: 7856; Renilla control light, replicate 1: 829; Renilla control light, replicate 2: 2496

How did the screen score Jhbp4 [DRSC14222]?
firefly reporter light, replicate 1: 15889; Renilla control light, replicate 1: 4433

With Ten-a [DRSC18924], what was measured?
firefly reporter light, replicate 1: 3921; Renilla control light, replicate 1: 1202

With Ten-a [DRSC19496], how do the results read?
firefly reporter light, replicate 1: 20208; Renilla control light, replicate 1: 3557

With Ten-a [DRSC19700], how do the results read?
firefly reporter light, replicate 1: 19048; Renilla control light, replicate 1: 10114

With Ten-a [DRSC19793], what was measured?
firefly reporter light, replicate 1: 24322; Renilla control light, replicate 1: 12518

What did the screen give for Ten-a [DRSC19864]?
firefly reporter light, replicate 1: 14416; Renilla control light, replicate 1: 9089

For Ten-a [DRSC19865], how do the results read?
firefly reporter light, replicate 1: 15213; Renilla control light, replicate 1: 8954

With Ten-a [DRSC20290], what does the deposit list?
firefly reporter light, replicate 1: 22753; Renilla control light, replicate 1: 10979

What is on record for Ten-a [DRSC21461]?
firefly reporter light, replicate 1: 6.59e5; firefly reporter light, replicate 2: 7.22e5; Renilla control light, replicate 1: 2.74e5; Renilla control light, replicate 2: 1.89e5

2 entries from above, set out differently:
gene	dsRNA	reporter change call, replicate 1	firefly reporter light, replicate 1	firefly reporter light, replicate 2	Renilla control light, replicate 1	Renilla control light, replicate 2
Jhbp4	DRSC14222		15889		4433	
Ten-a	DRSC18924		3921		1202	

Next entries:
Which result is listed for CG34006 (retired record) [DRSC13817]?
firefly reporter light, replicate 1: 3431; Renilla control light, replicate 1: 1936

For CG11085 [DRSC19374], how do the results read?
firefly reporter light, replicate 1: 26020; Renilla control light, replicate 1: 14376

With CG11085 [DRSC22832], what was measured?
firefly reporter light, replicate 1: 6.34e5; firefly reporter light, replicate 2: 6.12e5; Renilla control light, replicate 1: 1.60e5; Renilla control light, replicate 2: 1.79e5

With syd [DRSC10963], what does the deposit list?
firefly reporter light, replicate 1: 6676; Renilla control light, replicate 1: 2528

What is on record for MED25 [DRSC14483]?
firefly reporter light, replicate 1: 2768; firefly reporter light, replicate 2: 4064; Renilla control light, replicate 1: 256; Renilla control light, replicate 2: 394

What did the screen give for Pdhb [DRSC14420]?
firefly reporter light, replicate 1: 1923; firefly reporter light, replicate 2: 9095; Renilla control light, replicate 1: 896; Renilla control light, replicate 2: 3378

What did the screen give for meso18E [DRSC20351]?
firefly reporter light, replicate 1: 14210; Renilla control light, replicate 1: 7495

For CG18266 [DRSC02659], what was measured?
firefly reporter light, replicate 1: 11496; Renilla control light, replicate 1: 5137

For Atf-2 + veg (retired record) [DRSC04130], how do the results read?
firefly reporter light, replicate 1: 12445; Renilla control light, replicate 1: 4294

With Atf-2 + veg (retired record) [DRSC04413], what was measured?
firefly reporter light, replicate 1: 6236; Renilla control light, replicate 1: 982

For CG32301 [DRSC08613], what was measured?
firefly reporter light, replicate 1: 6137; Renilla control light, replicate 1: 2653

Which result is listed for Vps39 [DRSC16205]?
firefly reporter light, replicate 1: 3613; firefly reporter light, replicate 2: 7971; Renilla control light, replicate 1: 1357; Renilla control light, replicate 2: 2000

Which result is listed for z [DRSC18855]?
reporter change call, replicate 1: Wg reporter activity raised (active); firefly reporter light, replicate 1: 8293; firefly reporter light, replicate 2: 13590; Renilla control light, replicate 1: 362; Renilla control light, replicate 2: 693

With CG12241 [DRSC14481], what was measured?
firefly reporter light, replicate 1: 5399; Renilla control light, replicate 1: 2017

Which result is listed for Uggt [DRSC11315]?
firefly reporter light, replicate 1: 4224; Renilla control light, replicate 1: 2027
